Experimental data reported in article PMC6787490.
Results are given in words; binding and its absence hold for the method and conditions named. Binding seen in cells or lysates may run through a third protein.

Target: T1, Nuclear cap-binding protein 2 (human (endogenous in H1299)) (UniProt P52298)
T1 sequence: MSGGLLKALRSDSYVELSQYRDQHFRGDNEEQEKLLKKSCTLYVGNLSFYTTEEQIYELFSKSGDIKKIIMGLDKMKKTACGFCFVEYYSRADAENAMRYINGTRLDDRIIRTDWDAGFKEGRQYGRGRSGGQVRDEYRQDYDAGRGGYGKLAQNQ
Assay: co-IP; H1299 cells lysed in RIP lysis buffer (RBP immunoprecipitation kit, EMD Millipore); lysates immunoprecipitated with antibodies against NCBP1, NCBP2 or NCBP3 (Abcam) and protein A/G magnetic beads overnight at 4°C; precipitates immunoblotted for NCBP1, NCBP2 and NCBP3

binding: no binding
B1: Nuclear cap-binding protein 3 (protein, UniProt Q53F19 1-620)
chain: MAAVRGLRVSVKAEAPAGPALGLPSPEAESGVDRGEPEPMEVEEGELEIVPVRRSLKELIPDTSRRYENKAGSFITGIDVTSKEAIEKKEQRAKRFHFRSEVNLAQRNVALDRDMMKKAIPKVRLETIYICGVDEMSTQDVFSYFKEYPPAHIEWLDDTSCNVVWLDEMTATRALINMSSLPAQDKIRSRDASEDKSAEKRKKDKQEDSSDDDEAEEGEVEDENSSDVELDTLSQVEEESLLRNDLRPANKLAKGNRLFMRFATKDDKKELGAARRSQYYMKYGNPNYGGMKGILSNSWKRRYHSRRIQRDVIKKRALIGDDVGLTSYKHRHSGLVNVPEEPIEEEEEEEEEEEEEEEEDQDMDADDRVVVEYHEELPALKQPRERSASRRSSASSSDSDEMDYDLELKMISTPSPKKSMKMTMYADEVESQLKNIRNSMRADSVSSSNIKNRIGNKLPPEKFADVRHLLDEKRQHSRPRPPVSSTKSDIRQRLGKRPHSPEKAFSSNPVVRREPSSDVHSRLGVPRQDSKGLYADTREKKSGNLWTRLGSAPKTKEKNTKKVDHRAPGAEEDDSELQRAWGALIKEKEQSRQKKSRLDNLPSLQIEVSRESSSGSEAES
